Laboratory results reported in the supplement of paper PMC10849652.
The list shows a part of the results.

Amino acid sequences for entries named in this document (tags omitted). A change or cut given only in a name is not applied to a line headed by its entry.
UniProt Q9HAV0, whole entry, looked up: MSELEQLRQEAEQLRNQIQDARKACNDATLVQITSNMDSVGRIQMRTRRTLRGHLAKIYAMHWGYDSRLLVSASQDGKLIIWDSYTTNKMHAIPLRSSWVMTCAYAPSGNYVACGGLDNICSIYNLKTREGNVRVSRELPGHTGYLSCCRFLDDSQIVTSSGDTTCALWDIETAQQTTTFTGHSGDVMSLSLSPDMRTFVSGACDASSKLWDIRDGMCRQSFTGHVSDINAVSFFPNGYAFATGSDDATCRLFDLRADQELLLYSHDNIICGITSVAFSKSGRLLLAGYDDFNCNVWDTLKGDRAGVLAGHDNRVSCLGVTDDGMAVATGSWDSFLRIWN
UniProt O76003: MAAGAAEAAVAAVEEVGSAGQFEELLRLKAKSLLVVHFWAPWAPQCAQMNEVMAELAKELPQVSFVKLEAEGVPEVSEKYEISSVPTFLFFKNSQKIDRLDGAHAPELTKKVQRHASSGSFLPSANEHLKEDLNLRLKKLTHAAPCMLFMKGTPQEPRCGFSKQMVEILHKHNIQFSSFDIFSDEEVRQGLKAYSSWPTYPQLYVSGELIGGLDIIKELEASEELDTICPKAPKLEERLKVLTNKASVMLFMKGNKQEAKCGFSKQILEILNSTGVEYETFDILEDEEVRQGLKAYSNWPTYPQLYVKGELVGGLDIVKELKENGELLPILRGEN
UniProt Q96IJ6: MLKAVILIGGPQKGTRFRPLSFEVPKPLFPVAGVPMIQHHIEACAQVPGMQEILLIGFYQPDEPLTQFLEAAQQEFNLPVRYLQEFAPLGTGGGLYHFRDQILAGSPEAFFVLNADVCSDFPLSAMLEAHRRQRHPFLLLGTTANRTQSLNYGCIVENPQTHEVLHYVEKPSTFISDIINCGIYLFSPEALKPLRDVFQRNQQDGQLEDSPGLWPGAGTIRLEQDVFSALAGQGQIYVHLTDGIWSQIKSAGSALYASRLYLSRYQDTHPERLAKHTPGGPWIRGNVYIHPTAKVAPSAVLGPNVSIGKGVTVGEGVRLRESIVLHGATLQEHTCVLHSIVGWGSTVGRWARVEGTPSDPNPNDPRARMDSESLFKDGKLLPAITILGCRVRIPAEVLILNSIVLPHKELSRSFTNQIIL
UniProt P15586: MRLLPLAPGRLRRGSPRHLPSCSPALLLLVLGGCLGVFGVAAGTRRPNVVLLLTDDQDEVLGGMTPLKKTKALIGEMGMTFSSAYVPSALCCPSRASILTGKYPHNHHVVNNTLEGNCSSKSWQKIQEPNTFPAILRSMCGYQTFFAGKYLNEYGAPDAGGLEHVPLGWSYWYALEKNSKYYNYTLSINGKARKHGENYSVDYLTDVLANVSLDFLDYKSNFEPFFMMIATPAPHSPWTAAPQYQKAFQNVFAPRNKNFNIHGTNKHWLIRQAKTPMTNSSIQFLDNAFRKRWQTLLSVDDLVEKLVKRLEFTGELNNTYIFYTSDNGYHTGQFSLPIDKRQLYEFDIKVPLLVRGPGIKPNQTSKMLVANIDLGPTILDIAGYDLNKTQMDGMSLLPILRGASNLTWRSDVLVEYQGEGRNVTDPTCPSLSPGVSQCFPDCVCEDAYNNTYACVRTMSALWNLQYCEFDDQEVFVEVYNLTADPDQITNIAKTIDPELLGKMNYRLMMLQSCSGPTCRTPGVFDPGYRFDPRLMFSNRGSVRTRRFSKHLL
UniProt O95249: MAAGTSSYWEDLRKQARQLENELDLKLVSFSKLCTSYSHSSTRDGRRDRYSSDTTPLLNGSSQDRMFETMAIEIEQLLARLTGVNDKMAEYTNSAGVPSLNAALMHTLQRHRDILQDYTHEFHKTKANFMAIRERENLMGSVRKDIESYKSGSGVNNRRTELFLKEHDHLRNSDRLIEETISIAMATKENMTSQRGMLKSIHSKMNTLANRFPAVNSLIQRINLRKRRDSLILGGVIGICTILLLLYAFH
UniProt P50148, whole entry, looked up: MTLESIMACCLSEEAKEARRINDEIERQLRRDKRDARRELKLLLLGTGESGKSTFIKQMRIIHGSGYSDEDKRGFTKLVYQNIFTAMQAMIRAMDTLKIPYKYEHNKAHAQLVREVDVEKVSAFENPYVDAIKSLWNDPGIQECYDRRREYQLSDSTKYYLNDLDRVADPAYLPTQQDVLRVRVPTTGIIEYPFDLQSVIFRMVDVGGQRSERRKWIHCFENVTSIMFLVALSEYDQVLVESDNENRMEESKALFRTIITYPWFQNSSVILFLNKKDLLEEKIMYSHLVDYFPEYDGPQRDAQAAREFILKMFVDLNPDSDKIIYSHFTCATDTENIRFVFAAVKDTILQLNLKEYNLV
UniProt Q96EK6: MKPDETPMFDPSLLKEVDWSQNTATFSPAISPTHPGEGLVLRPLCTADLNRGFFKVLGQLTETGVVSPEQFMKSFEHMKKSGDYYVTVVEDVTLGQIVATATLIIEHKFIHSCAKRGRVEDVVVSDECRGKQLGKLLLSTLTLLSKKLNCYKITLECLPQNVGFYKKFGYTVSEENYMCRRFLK
UniProt Q9NS18: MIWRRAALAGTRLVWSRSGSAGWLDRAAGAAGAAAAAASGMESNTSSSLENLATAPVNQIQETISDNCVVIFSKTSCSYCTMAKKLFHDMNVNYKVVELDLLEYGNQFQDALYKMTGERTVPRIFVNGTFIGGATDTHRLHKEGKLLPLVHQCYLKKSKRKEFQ
UniProt Q8N954: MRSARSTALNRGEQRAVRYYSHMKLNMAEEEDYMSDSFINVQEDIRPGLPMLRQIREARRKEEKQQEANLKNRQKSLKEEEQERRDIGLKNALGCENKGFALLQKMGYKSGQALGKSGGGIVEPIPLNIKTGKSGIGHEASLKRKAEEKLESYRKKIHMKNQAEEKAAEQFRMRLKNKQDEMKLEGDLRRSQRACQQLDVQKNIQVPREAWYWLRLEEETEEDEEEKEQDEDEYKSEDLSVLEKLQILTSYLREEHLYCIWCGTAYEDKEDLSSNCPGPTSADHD
UniProt O60547: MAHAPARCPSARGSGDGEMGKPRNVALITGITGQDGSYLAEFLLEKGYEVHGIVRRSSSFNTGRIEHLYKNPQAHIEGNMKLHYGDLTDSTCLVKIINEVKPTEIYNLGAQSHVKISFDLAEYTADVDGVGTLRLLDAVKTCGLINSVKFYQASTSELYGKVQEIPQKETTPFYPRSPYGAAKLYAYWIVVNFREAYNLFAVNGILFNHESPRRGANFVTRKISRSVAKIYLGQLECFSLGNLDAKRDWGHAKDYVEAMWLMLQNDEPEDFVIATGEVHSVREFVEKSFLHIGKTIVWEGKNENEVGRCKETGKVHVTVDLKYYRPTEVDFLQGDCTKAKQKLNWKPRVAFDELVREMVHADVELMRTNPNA
UniProt Q5JWF2, whole entry, looked up: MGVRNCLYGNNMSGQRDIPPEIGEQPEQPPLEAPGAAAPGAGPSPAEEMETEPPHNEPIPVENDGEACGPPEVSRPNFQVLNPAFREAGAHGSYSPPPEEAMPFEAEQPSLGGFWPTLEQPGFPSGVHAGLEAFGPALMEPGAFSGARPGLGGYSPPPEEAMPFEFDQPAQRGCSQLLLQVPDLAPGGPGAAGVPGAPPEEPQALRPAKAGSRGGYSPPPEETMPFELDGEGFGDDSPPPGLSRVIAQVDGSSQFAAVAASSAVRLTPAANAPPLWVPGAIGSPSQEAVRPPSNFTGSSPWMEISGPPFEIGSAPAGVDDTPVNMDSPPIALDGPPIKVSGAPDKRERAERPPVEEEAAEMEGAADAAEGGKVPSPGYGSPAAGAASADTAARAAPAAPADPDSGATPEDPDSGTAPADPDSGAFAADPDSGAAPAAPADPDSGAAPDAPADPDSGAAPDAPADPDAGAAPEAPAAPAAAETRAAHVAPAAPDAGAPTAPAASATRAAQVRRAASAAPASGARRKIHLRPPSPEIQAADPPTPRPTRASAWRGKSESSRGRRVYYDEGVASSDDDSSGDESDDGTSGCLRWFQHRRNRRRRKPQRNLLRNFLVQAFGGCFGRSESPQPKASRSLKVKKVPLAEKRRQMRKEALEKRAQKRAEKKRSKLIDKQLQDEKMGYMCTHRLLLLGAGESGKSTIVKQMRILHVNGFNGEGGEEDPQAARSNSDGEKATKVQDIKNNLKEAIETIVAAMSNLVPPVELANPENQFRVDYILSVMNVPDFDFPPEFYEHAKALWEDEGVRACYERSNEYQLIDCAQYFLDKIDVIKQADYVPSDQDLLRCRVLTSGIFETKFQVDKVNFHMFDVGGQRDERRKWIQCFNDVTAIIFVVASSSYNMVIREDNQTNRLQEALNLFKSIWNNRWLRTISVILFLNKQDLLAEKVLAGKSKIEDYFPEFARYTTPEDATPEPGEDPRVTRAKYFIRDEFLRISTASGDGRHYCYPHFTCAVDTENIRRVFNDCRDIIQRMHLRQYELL
UniProt Q14691: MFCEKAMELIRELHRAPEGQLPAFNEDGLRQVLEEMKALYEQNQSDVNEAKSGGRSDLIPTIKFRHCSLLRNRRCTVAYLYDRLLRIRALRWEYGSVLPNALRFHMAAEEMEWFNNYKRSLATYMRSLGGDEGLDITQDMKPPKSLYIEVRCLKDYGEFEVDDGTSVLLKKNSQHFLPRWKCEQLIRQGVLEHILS
UniProt Q9Y223: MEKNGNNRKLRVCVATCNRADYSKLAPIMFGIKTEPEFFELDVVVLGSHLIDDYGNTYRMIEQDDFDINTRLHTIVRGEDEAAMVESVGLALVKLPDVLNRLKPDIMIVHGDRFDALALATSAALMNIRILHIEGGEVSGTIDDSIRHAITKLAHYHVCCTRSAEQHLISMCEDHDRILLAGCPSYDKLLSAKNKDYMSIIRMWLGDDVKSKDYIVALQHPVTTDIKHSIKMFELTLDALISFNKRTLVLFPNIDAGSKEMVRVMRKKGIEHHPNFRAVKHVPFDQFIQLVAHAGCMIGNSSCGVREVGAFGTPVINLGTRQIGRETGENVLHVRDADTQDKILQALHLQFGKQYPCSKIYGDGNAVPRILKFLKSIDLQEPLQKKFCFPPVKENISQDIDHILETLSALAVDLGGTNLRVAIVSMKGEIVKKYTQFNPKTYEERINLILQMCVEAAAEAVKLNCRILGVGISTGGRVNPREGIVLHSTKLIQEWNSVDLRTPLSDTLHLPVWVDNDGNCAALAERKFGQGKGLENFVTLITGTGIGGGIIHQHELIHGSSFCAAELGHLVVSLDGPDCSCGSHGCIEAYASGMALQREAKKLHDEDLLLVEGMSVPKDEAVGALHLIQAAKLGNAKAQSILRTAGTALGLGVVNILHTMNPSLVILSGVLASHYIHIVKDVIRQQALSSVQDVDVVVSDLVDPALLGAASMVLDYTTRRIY
UniProt Q9H4G4: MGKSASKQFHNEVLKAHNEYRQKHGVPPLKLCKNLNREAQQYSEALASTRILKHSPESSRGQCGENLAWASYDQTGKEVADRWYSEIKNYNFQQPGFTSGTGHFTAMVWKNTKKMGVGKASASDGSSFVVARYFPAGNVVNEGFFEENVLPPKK
UniProt Q92917: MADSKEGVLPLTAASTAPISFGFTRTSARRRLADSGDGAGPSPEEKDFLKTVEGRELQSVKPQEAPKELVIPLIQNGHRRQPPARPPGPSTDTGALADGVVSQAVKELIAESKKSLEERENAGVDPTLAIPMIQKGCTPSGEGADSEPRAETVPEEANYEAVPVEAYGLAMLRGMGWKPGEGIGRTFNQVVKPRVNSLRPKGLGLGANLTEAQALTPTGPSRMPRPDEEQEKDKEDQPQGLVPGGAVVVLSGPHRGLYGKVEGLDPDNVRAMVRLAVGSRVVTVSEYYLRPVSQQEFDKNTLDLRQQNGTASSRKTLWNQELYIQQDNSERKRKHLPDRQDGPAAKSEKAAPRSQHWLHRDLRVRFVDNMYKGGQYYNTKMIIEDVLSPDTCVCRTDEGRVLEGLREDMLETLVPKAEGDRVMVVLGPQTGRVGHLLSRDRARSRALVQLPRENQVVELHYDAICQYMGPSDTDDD
UniProt Q9BXV9: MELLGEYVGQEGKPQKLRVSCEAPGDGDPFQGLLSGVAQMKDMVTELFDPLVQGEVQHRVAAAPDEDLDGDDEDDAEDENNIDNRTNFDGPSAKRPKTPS
UniProt Q5T7V8: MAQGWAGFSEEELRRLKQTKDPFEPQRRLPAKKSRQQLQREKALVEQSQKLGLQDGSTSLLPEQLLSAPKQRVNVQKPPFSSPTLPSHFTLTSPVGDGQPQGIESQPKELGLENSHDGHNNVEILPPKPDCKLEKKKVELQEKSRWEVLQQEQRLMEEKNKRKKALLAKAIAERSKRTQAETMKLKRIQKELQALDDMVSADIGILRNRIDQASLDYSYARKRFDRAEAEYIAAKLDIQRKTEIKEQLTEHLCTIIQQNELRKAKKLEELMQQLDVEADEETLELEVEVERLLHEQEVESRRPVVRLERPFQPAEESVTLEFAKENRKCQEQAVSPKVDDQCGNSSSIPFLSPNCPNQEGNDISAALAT
UniProt Q9NWU2, whole entry, looked up: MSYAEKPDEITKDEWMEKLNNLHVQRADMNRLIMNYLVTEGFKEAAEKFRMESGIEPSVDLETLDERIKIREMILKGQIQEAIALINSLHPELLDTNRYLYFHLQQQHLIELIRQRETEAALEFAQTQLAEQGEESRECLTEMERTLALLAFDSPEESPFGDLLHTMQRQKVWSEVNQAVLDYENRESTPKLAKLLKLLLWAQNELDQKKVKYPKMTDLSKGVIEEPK

Tests used:
Assay in all cases: log2 fold change, soluble protein after heating vs DMSO (PISA); higher = thermal stabilisation; K562 lysate, 10 uM; active = over 0.2 and 3.5 SD of the protein, either way, in both replicates (recomputed)
lapatinib = compound: CS(=O)(=O)CCNCc1ccc(-c2ccc3ncnc(Nc4ccc(OCc5cccc(F)c5)c(Cl)c4)c3c2)o1 [lapatinib]
Summary of the method: (§1)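 Values give the log-two fold change in thermal stability against solvent controls, from duplicates. Crude K562 extract at 1 mg/mL protein, made by dounce homogenisation in PBS pH 7.4 with 1 mM MgCl2, was treated with 10 μM compound for 30 min. After 3 min heating across 48°C-58°C, aliquots were pooled, adjusted to 0.5% NP-40 at 4°C and centrifuged at 21,000xg for 90 min. The supernatant was measured by TMTpro 16plex LC-MS/MS with channel sums equalised.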

pictilisib = compound: CS(=O)(=O)N1CCN(Cc2cc3nc(-c4cccc5[nH]ncc45)nc(N4CCOCC4)c3s2)CC1 [pictilisib]
Summary of the method: as §1

crizotinib = compound: C[C@@H](Oc1cc(-c2cnn(C3CCNCC3)c2)cnc1N)c1c(Cl)ccc(F)c1Cl [crizotinib]
Summary of the method: as §1

[1] = compound: C[C@H](C1=CC=C(C=C1)C(=O)NC2=C3C=CNC3=NC=C2)N
Summary of the method: as §1

duvelisib = compound: C[C@H](Nc1ncnc2nc[nH]c12)c1cc2cccc(Cl)c2c(=O)n1-c1ccccc1 [duvelisib]
Summary of the method: as §1

gandotinib = compound: Cc1cc(Nc2cc(CN3CCOCC3)c3nc(C)c(Cc4ccc(Cl)cc4F)n3n2)n[nH]1 [gandotinib]
Summary of the method: as §1

tozasertib = compound: Cc1cc(Nc2cc(N3CCN(C)CC3)nc(Sc3ccc(NC(=O)C4CC4)cc3)n2)n[nH]1 [tozasertib]
Summary of the method: as §1

doramapimod = compound: Cc1ccc(-n2nc(C(C)(C)C)cc2NC(=O)Nc2ccc(OCCN3CCOCC3)c3ccccc23)cc1 [doramapimod]
Summary of the method: as §1

bafetinib = compound: Cc1ccc(NC(=O)c2ccc(CN3CC[C@H](N(C)C)C3)c(C(F)(F)F)c2)cc1Nc1nccc(-c2cncnc2)n1 [bafetinib]
Summary of the method: as §1

[2] = compound: Cc1cccc(CC(=O)N2CCc3c2ccc(-c2cn(C)c4ncnc(N)c24)c3F)n1
Summary of the method: as §1

Measured: log2 fold change

GOPC (UniProt Q9HD26)
inactive: lapatinib -0.037 | pictilisib -0.013 | crizotinib 0.014 | [1] 0.01 | duvelisib -0.003 | gandotinib -0.043 | tozasertib -0.037 | doramapimod 0.14 | bafetinib -0.013 | [2] 0.011

GNB4 (UniProt Q9HAV0)
inactive: lapatinib 0.031 | pictilisib -0.031 | crizotinib 0.106 | [1] -0.058 | duvelisib 0.015 | gandotinib 0.094 | tozasertib -0.028 | doramapimod 0.171 | bafetinib -0.033 | [2] 0.074

GPBP1L1 (UniProt Q9HC44)
inactive: lapatinib -0.011 | pictilisib 0.047 | crizotinib 0.012 | [1] -0.037 | duvelisib -0.028 | gandotinib 0.136 | tozasertib 0.043 | doramapimod 0.059 | bafetinib -0.016 | [2] 0.042

GPS2 (UniProt Q13227)
inactive: lapatinib 0.031 | pictilisib -0.24 | crizotinib 0.119 | [1] 0.052 | duvelisib -0.012 | gandotinib -0.103 | tozasertib 0.043 | doramapimod -0.075 | bafetinib -0.269 | [2] -0.032

GLRX3 (UniProt O76003)
inactive: lapatinib -0.011 | pictilisib -0.029 | crizotinib 0.013 | [1] 0.009 | duvelisib 0.009 | gandotinib 0.019 | tozasertib -0.057 | doramapimod -0.039 | bafetinib -0.006 | [2] -0.022

GMPPA (UniProt Q96IJ6)
inactive: lapatinib -0.043 | pictilisib -0.025 | crizotinib -0.049 | [1] -0.122 | duvelisib -0.039 | gandotinib 0.039 | tozasertib 0.001 | doramapimod 0.054 | bafetinib 0.009 | [2] 0.08

GNS (UniProt P15586)
inactive: lapatinib 0.01 | pictilisib -0.01 | crizotinib 0.023 | [1] 0.025 | duvelisib 0.031 | gandotinib 0.017 | tozasertib 0.037 | doramapimod -0.041 | bafetinib 0.016 | [2] 0.016

GOSR1 (UniProt O95249)
inactive: lapatinib 0.01 | pictilisib 0.007 | crizotinib -0.059 | [1] 0.027 | duvelisib -0.014 | gandotinib -0.005 | tozasertib 0.054 | doramapimod 0.049 | bafetinib -0.028 | [2] 0.051

GIGYF2 (UniProt Q6Y7W6)
inactive: lapatinib 0.013 | pictilisib 0.057 | crizotinib 0.024 | [1] 0.03 | duvelisib -0.033 | gandotinib 0.05 | tozasertib -0.006 | doramapimod -0.086 | bafetinib -0.043 | [2] -0.009

GNAQ (UniProt P50148)
inactive: lapatinib -0.01 | pictilisib -0.109 | crizotinib 0.036 | [1] -0.003 | duvelisib 0.028 | gandotinib 0.018 | tozasertib -0.003 | doramapimod -0.071 | bafetinib -0.003 | [2] 0.018

GPS1 (UniProt A8K070)
inactive: lapatinib 0.012 | pictilisib -0.049 | crizotinib 0.065 | [1] -0.003 | duvelisib 0.017 | gandotinib -0.051 | tozasertib -0.021 | doramapimod -0.04 | bafetinib -0.039 | [2] -0.028

GNPNAT1 (UniProt Q96EK6)
inactive: lapatinib 0.022 | pictilisib 0.035 | crizotinib -0.005 | [1] 0.023 | duvelisib -0.002 | gandotinib -0.038 | tozasertib 0.073 | doramapimod 0.018 | bafetinib 0.023 | [2] -0.094

GLRX2 (UniProt Q9NS18)
inactive: lapatinib 0.023 | pictilisib -0.041 | crizotinib 0.061 | [1] 0.13 | duvelisib 0.023 | gandotinib -0.06 | tozasertib -0.082 | doramapimod -0.039 | bafetinib -0.019 | [2] -0.18

GPATCH11 (UniProt Q8N954)
inactive: lapatinib -0.002 | pictilisib -0.018 | crizotinib 0.01 | [1] -0.031 | duvelisib 0.006 | gandotinib 0.044 | tozasertib 0.024 | doramapimod 0.026 | bafetinib -0.013 | [2] 0.029

GLCCI1 (UniProt Q86VQ1)
inactive: lapatinib 0.041 | pictilisib 0.015 | crizotinib -0.055 | [1] 0.013 | duvelisib -0.044 | gandotinib 0.049 | tozasertib 0.278 | doramapimod 0 | bafetinib 0.046 | [2] 0.097

GNL2 (UniProt Q13823)
inactive: lapatinib 0.028 | pictilisib -0.017 | crizotinib -0.031 | [1] 0.031 | duvelisib 0.046 | gandotinib -0.047 | tozasertib -0.023 | doramapimod 0.018 | bafetinib -0.075 | [2] -0.012

GIPC1 (UniProt O14908)
inactive: lapatinib -0.023 | pictilisib 0.005 | crizotinib 0.037 | [1] -0.092 | duvelisib 0.051 | gandotinib -0.01 | tozasertib 0.036 | doramapimod 0.021 | bafetinib -0.03 | [2] -0.014

GMDS (UniProt O60547)
inactive: lapatinib -0.019 | pictilisib -0.035 | crizotinib -0.01 | [1] 0.004 | duvelisib 0.012 | gandotinib -0.013 | tozasertib -0.016 | doramapimod 0.018 | bafetinib 0.001 | [2] -0.021

GNAS (UniProt Q5JWF2)
inactive: lapatinib -0.021 | pictilisib -0.02 | crizotinib 0.007 | [1] 0.139 | duvelisib 0.027 | gandotinib -0.093 | tozasertib 0.024 | doramapimod -0.012 | bafetinib 0.019 | [2] -0.102

Fetched one by one from the list above (2):
GNL2 (UniProt Q13823)
inactive: lapatinib 0.028 | pictilisib -0.017 | crizotinib -0.031 | [1] 0.031 | duvelisib 0.046 | gandotinib -0.047 | tozasertib -0.023 | doramapimod 0.018 | bafetinib -0.075 | [2] -0.012

GIPC1 (UniProt O14908)
inactive: lapatinib -0.023 | pictilisib 0.005 | crizotinib 0.037 | [1] -0.092 | duvelisib 0.051 | gandotinib -0.01 | tozasertib 0.036 | doramapimod 0.021 | bafetinib -0.03 | [2] -0.014

(list continues)

GINS1 (UniProt Q14691)
inactive: lapatinib -0.018 | pictilisib -0.059 | crizotinib -0.045 | [1] -0.025 | duvelisib 0.025 | gandotinib -0.04 | tozasertib 0.019 | doramapimod 0.01 | bafetinib -0.055 | [2] 0

GPATCH4 isoform 3 (UniProt Q5T3I0)
inactive: lapatinib -0.079 | pictilisib 0.128 | crizotinib -0.032 | [1] 0.084 | duvelisib -0.063 | gandotinib -0.03 | tozasertib 0.029 | doramapimod 0.112 | bafetinib -0.045 | [2] -0.021

GINS4 (UniProt Q9BRT9)
inactive: lapatinib 0.016 | pictilisib -0.041 | crizotinib 0.03 | [1] 0.008 | duvelisib -0.014 | gandotinib -0.03 | tozasertib -0.018 | doramapimod 0.016 | bafetinib 0.014 | [2] -0.005

GNE isoform 2 (UniProt Q9Y223)
inactive: lapatinib 0.012 | pictilisib -0.005 | crizotinib -0.053 | [1] -0.01 | duvelisib -0.011 | gandotinib -0.127 | tozasertib -0.008 | doramapimod 0.021 | bafetinib -0.031 | [2] 0.034

GGNBP2 (UniProt Q9H3C7)
inactive: lapatinib 0.013 | pictilisib -0.017 | crizotinib -0.037 | [1] -0.029 | duvelisib 0.008 | gandotinib -0.082 | tozasertib -0.007 | doramapimod 0.005 | bafetinib -0.032 | [2] 0.02

GLIPR2 (UniProt Q9H4G4)
inactive: lapatinib 0.002 | pictilisib -0.027 | crizotinib 0.004 | [1] 0.033 | duvelisib -0.051 | gandotinib -0.021 | tozasertib -0.209 | doramapimod -0.032 | bafetinib 0.008 | [2] -0.03

GPKOW (UniProt Q92917)
inactive: lapatinib 0 | pictilisib 0.013 | crizotinib 0.028 | [1] 0.102 | duvelisib -0.029 | gandotinib -0.026 | tozasertib 0 | doramapimod 0.002 | bafetinib -0.03 | [2] -0.07

GON7 (UniProt Q9BXV9)
inactive: lapatinib 0.076 | pictilisib 0.032 | crizotinib -0.024 | [1] 0.161 | duvelisib 0.013 | gandotinib -0.081 | tozasertib -0.004 | doramapimod 0.03 | bafetinib 0.086 | [2] -0.058

GORAB (UniProt Q5T7V8)
inactive: lapatinib 0.004 | pictilisib 0.016 | crizotinib -0.021 | [1] 0.038 | duvelisib -0.065 | gandotinib 0.048 | tozasertib -0.052 | doramapimod 0.009 | bafetinib 0.121 | [2] -0.063

GID8 (UniProt Q9NWU2)
inactive: lapatinib -0.003 | pictilisib -0.037 | crizotinib 0.007 | [1] 0.032 | duvelisib -0.003 | gandotinib -0.029 | tozasertib -0.036 | doramapimod -0.028 | bafetinib -0.02 | [2] 0.018
